# Reference: patent publication US9783853B2, “Recurrent gene fusions in cancer” (THE REGENTS OF THE UNIVERSITY OF MICHIGAN, priority 2013, dated 2017)
# At least one compound was matched to its structure with a doubt left.
# System: FGFR fusion positive versus FGFR mutant bladder cancer cell lines
# Experiment: Sensitivity of bladder cancer cell lines to pazopanib
# Format: cell-based
# Settings: FGFR fusion positive versus FGFR mutant cell lines (FIG. 11B legend)
smiles,measurement,value
Cc1ccc(Nc2nccc(N(C)c3ccc4c(C)n(C)nc4c3)n2)cc1S(N)(=O)=O [pazopanib],sensitivity of bladder cancer cell lines to FGFR inhibitor,Differential sensitivity
